{
  "source": "the supplement of paper PMC8728848",
  "assay_in_all_cases": "glycan array binding signal (z-score within array); higher = stronger binding",
  "details_in_all_cases": "glycan notation: IUPAC condensed, linker removed",
  "key": {"[1]": {"target": "Neu5Ac(a2-3)Gal(b1-4)GlcNAc(b1-2)[Neu5Ac(a2-3)Gal(b1-4)GlcNAc(b1-4)]Man(a1-3)[GlcNAc(b1-4)][Neu5Ac(a2-3)Gal(b1-4)GlcNAc(b1-2)[Neu5Ac(a2-3)Gal(b1-4)GlcNAc(b1-6)]Man(a1-6)]Man(b1-4)GlcNAc(b1-4)GlcNAc", "outline": "(§1)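 Glycan array data were curated from 3228 arrays in the Consortium for Functional Glycomics database and kept only where the protein sequence was available. Glycan names were converted to IUPAC-condensed notation, and columns mapping to the same glycan were averaged. The binding signal is a within-array Z-score, averaged across arrays of the same protein sequence at different concentrations or buffers and across linkers. Negative Z-scores can be read as non-binding.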"}, "[2]": {"target": "Neu5Ac(a2-3)Gal(b1-4)GlcNAc(b1-2)[Neu5Ac(a2-3)Gal(b1-4)GlcNAc(b1-4)]Man(a1-3)[GlcNAc(b1-4)][Neu5Ac(a2-3)Gal(b1-4)GlcNAc(b1-4)Man(a1-6)]Man(b1-4)GlcNAc(b1-4)GlcNAc", "outline": "as §1"}, "[3]": {"target": "Neu5Ac(a2-3)Gal(b1-4)GlcNAc(b1-2)[Neu5Ac(a2-3)Gal(b1-4)GlcNAc(b1-6)]Man(a1-6)[Neu5Ac(a2-3)Gal(b1-4)GlcNAc(b1-2)Man(a1-3)][GlcNAc(b1-4)]Man(b1-4)GlcNAc(b1-4)GlcNAc", "outline": "as §1"}, "[4]": {"target": "Neu5Ac(a2-3)Gal(b1-4)GlcNAc(b1-3)Gal", "outline": "as §1"}, "[5]": {"target": "Neu5Ac(a2-3)Gal(b1-4)GlcNAc(b1-3)Gal(b1-3)GlcNAc", "outline": "as §1"}, "[6]": {"target": "Neu5Ac(a2-3)Gal(b1-4)GlcNAc(b1-3)Gal(b1-4)GlcNAc", "outline": "as §1"}, "[7]": {"target": "Neu5Ac(a2-3)Gal(b1-4)GlcNAc(b1-3)Gal(b1-4)GlcNAc(b1-2)Man(a1-3)[Neu5Ac(a2-3)Gal(b1-4)GlcNAc(b1-3)Gal(b1-4)GlcNAc(b1-2)Man(a1-6)]Man(b1-4)GlcNAc(b1-4)GlcNAc", "outline": "as §1"}, "[8]": {"target": "Neu5Ac(a2-3)Gal(b1-4)GlcNAc(b1-3)Gal(b1-4)GlcNAc(b1-3)Gal(b1-4)GlcNAc", "outline": "as §1"}, "[9]": {"target": "Neu5Ac(a2-3)Gal(b1-4)GlcNAc(b1-3)Gal(b1-4)GlcNAc(b1-3)Gal(b1-4)GlcNAc(b1-2)Man(a1-3)[Neu5Ac(a2-3)Gal(b1-4)GlcNAc(b1-3)Gal(b1-4)GlcNAc(b1-3)Gal(b1-4)GlcNAc(b1-2)Man(a1-6)]GalNAc", "outline": "as §1"}, "[10]": {"target": "Neu5Ac(a2-3)Gal(b1-4)GlcNAc(b1-3)Gal(b1-4)GlcNAc(b1-3)GalNAc", "outline": "as §1"}, "[11]": {"target": "Neu5Ac(a2-3)Gal(b1-4)GlcNAc(b1-3)Gal(b1-4)GlcNAc(b1-3)[Neu5Ac(a2-3)Gal(b1-4)GlcNAc(b1-3)Gal(b1-4)GlcNAc(b1-6)]GalNAc", "outline": "as §1"}, "[12]": {"target": "Neu5Ac(a2-3)Gal(b1-4)GlcNAc(b1-3)Gal(b1-4)GlcNAc(b1-6)[Gal(b1-3)]GalNAc", "outline": "as §1"}, "[13]": {"target": "Neu5Ac(a2-3)Gal(b1-4)GlcNAc(b1-3)Gal(b1-4)[Fuc(a1-3)]GlcNAc", "outline": "as §1"}, "[14]": {"target": "Neu5Ac(a2-3)Gal(b1-4)GlcNAc(b1-3)GalNAc", "outline": "as §1"}, "[15]": {"target": "Neu5Ac(a2-3)Gal(b1-4)GlcNAc(b1-3)[Neu5Ac(a2-3)Gal(b1-4)GlcNAc(b1-6)]GalNAc", "outline": "as §1"}, "[16]": {"target": "Neu5Ac(a2-3)Gal(b1-4)GlcNAc(b1-6)GalNAc", "outline": "as §1"}, "[17]": {"target": "Neu5Ac(a2-3)Gal(b1-4)GlcNAc(b1-6)[Gal(b1-3)]GalNAc", "outline": "as §1"}, "[18]": {"target": "Neu5Ac(a2-3)Gal(b1-4)GlcNAc(b1-6)[Neu5Ac(a2-3)Gal(b1-3)]GalNAc", "outline": "as §1"}, "[19]": {"target": "Neu5Ac(a2-3)Gal(b1-4)GlcNAc6S", "outline": "as §1"}, "[20]": {"target": "Neu5Ac(a2-3)Gal(b1-4)[Fuc(a1-3)]GlcNAc", "outline": "as §1"}, "[21]": {"target": "Neu5Ac(a2-3)Gal(b1-4)[Fuc(a1-3)]GlcNAc(b1-2)Man", "outline": "as §1"}, "[22]": {"target": "Neu5Ac(a2-3)Gal(b1-4)[Fuc(a1-3)]GlcNAc(b1-3)Gal", "outline": "as §1"}, "[23]": {"target": "Neu5Ac(a2-3)Gal(b1-4)[Fuc(a1-3)]GlcNAc(b1-3)Gal(b1-4)GlcNAc", "outline": "as §1"}, "[24]": {"target": "Neu5Ac(a2-3)Gal(b1-4)[Fuc(a1-3)]GlcNAc(b1-3)Gal(b1-4)[Fuc(a1-3)]GlcNAc(b1-3)Gal(b1-4)[Fuc(a1-3)]GlcNAc", "outline": "as §1"}, "[25]": {"target": "Neu5Ac(a2-3)Gal(b1-4)[Fuc(a1-3)]GlcNAc(b1-3)GalNAc", "outline": "as §1"}, "[26]": {"target": "Neu5Ac(a2-3)Gal(b1-4)[Fuc(a1-3)]GlcNAc(b1-6)[Gal(b1-3)]GalNAc", "outline": "as §1"}, "[27]": {"target": "Neu5Ac(a2-3)Gal(b1-4)[Fuc(a1-3)]GlcNAc(b1-6)[Neu5Ac(a2-3)Gal(b1-3)]GalNAc", "outline": "as §1"}, "[28]": {"target": "Neu5Ac(a2-3)Gal(b1-4)[Fuc(a1-3)]GlcNAc6S", "outline": "as §1"}, "[29]": {"target": "Neu5Ac(a2-3)Gal6S(b1-4)GlcNAc", "outline": "as §1"}, "[30]": {"target": "Neu5Ac(a2-3)Gal6S(b1-4)[Fuc(a1-3)]GlcNAc", "outline": "as §1"}, "[31]": {"target": "Neu5Ac(a2-3)GalNAc", "outline": "as §1"}, "[32]": {"target": "Neu5Ac(a2-3)GalNAc(b1-4)GlcNAc", "outline": "as §1"}, "[33]": {"target": "Neu5Ac(a2-3)[GalNAc(b1-4)]Gal(b1-4)Glc", "outline": "as §1"}, "[34]": {"target": "Neu5Ac(a2-3)[GalNAc(b1-4)]Gal(b1-4)GlcNAc", "outline": "as §1"}, "[35]": {"target": "Neu5Ac(a2-3)[GalNAc(b1-4)]Gal(b1-4)GlcNAc(b1-3)GalNAc", "outline": "as §1"}, "[36]": {"target": "Neu5Ac(a2-3)[Neu5Ac(a2-6)]GalNAc", "outline": "as §1"}},
  "note": "The other results are listed elsewhere or left out.",
  "data": [
    {"binder": "Flo1 (Saccharomyces cerevisiae), P32768 (protein) SGATEACLPAGQRKSGMNINFYQYSLKDSSTYSNAAYMAYGYASKTKLGSVGGQTDISIDYNIPCVSSSGTFPCPQEDSYGNWGCKGMGACSNSQGIAYWSTDLFGFYTTPTNVTLEMTGYFLPPQTGSYTFKFATVDDSAILSVGGATAFNCCAQQQPPITSTNFTIDGIKPWGGSLPPNIEGTVYMYAGYYYPMKVVYSNAVSWGTLPISVTLPDGTTVSDDFEGYVYSFDDDLSQSNCTVPDPSNY", "values": [
      {"measurement": "glycan array binding signal (z-score)", "setting": "[1]", "result": -0.383},
      {"measurement": "glycan array binding signal (z-score)", "setting": "[2]", "result": 0.143},
      {"measurement": "glycan array binding signal (z-score)", "setting": "[3]", "result": -0.498},
      {"measurement": "glycan array binding signal (z-score)", "setting": "[4]", "result": -0.134},
      {"measurement": "glycan array binding signal (z-score)", "setting": "[5]", "result": -0.378},
      {"measurement": "glycan array binding signal (z-score)", "setting": "[6]", "result": -0.229},
      {"measurement": "glycan array binding signal (z-score)", "setting": "[7]", "result": -0.401},
      {"measurement": "glycan array binding signal (z-score)", "setting": "[8]", "result": 0.084},
      {"measurement": "glycan array binding signal (z-score)", "setting": "[9]", "result": 0.103},
      {"measurement": "glycan array binding signal (z-score)", "setting": "[10]", "result": -0.25},
      {"measurement": "glycan array binding signal (z-score)", "setting": "[11]", "result": 0.23},
      {"measurement": "glycan array binding signal (z-score)", "setting": "[12]", "result": -0.03},
      {"measurement": "glycan array binding signal (z-score)", "setting": "[13]", "result": -0.296},
      {"measurement": "glycan array binding signal (z-score)", "setting": "[14]", "result": -0.628},
      {"measurement": "glycan array binding signal (z-score)", "setting": "[15]", "result": 0.545},
      {"measurement": "glycan array binding signal (z-score)", "setting": "[16]", "result": -0.187},
      {"measurement": "glycan array binding signal (z-score)", "setting": "[17]", "result": -0.142},
      {"measurement": "glycan array binding signal (z-score)", "setting": "[18]", "result": -0.544},
      {"measurement": "glycan array binding signal (z-score)", "setting": "[19]", "result": -0.354},
      {"measurement": "glycan array binding signal (z-score)", "setting": "[20]", "result": -0.03},
      {"measurement": "glycan array binding signal (z-score)", "setting": "[21]", "result": 0.056},
      {"measurement": "glycan array binding signal (z-score)", "setting": "[22]", "result": -0.101},
      {"measurement": "glycan array binding signal (z-score)", "setting": "[23]", "result": 0.779},
      {"measurement": "glycan array binding signal (z-score)", "setting": "[24]", "result": -0.17},
      {"measurement": "glycan array binding signal (z-score)", "setting": "[25]", "result": 1.83},
      {"measurement": "glycan array binding signal (z-score)", "setting": "[26]", "result": 1.39},
      {"measurement": "glycan array binding signal (z-score)", "setting": "[27]", "result": 0.941},
      {"measurement": "glycan array binding signal (z-score)", "setting": "[28]", "result": -0.657},
      {"measurement": "glycan array binding signal (z-score)", "setting": "[29]", "result": 1.39},
      {"measurement": "glycan array binding signal (z-score)", "setting": "[30]", "result": -0.101},
      {"measurement": "glycan array binding signal (z-score)", "setting": "[31]", "result": 0.058},
      {"measurement": "glycan array binding signal (z-score)", "setting": "[32]", "result": -0.312},
      {"measurement": "glycan array binding signal (z-score)", "setting": "[33]", "result": 0.01},
      {"measurement": "glycan array binding signal (z-score)", "setting": "[34]", "result": 0.215},
      {"measurement": "glycan array binding signal (z-score)", "setting": "[35]", "result": 0.408},
      {"measurement": "glycan array binding signal (z-score)", "setting": "[36]", "result": -0.636}
    ]}
  ]
}
